Data as given in PMC3751857.
No constants are given. Whether binding was seen depends on the method and setting. Binding seen in cells or lysates may run through a third protein. Some results given as binding are weak or reduced against the parent protein; the word gives no strength. Sequences can lack the tags named with a protein. Each block holds one binder with its values, some of them ahead of it.

Assays:
[1] = target: T1, Flag-Alix, Q8WUM4; assay: co-IP; 293T cells co-transfected with HA-tagged Alix, DUb-Alix or DUb*-Alix and Flag-Alix or Flag-tagged Alix fragments; HA-tagged proteins immunoprecipitated on HA-antibody conjugated beads; western blot; settings: remark: other sources report otherwise
T1 chain: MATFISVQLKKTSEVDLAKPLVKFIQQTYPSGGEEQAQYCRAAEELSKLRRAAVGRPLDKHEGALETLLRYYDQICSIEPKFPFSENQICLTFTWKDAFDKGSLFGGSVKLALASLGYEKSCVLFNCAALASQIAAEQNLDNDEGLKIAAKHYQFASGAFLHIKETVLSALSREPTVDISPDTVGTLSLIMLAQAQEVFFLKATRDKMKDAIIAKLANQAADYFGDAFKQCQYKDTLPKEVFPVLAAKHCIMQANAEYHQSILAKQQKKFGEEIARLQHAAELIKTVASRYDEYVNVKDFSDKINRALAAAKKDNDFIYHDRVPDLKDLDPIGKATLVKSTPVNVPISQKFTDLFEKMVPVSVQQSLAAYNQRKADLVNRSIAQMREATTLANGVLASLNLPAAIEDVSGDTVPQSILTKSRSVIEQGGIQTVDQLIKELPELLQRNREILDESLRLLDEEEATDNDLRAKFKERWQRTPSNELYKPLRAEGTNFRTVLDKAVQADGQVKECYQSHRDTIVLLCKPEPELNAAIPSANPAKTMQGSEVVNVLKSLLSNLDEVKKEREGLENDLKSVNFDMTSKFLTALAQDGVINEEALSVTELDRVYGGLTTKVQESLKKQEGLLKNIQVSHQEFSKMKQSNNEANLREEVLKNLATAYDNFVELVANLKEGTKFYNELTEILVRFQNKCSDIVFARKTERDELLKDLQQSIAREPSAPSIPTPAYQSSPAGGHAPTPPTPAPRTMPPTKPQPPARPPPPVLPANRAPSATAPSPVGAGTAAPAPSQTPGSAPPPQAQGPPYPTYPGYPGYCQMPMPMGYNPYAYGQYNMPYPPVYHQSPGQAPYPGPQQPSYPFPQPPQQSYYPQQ

[2] = target: Strep-TSG101 (UniProt Q99816); assay: co-IP
[3] = target: Flag-Alix (UniProt Q8WUM4); assay: co-IP; 293T cells co-transfected with HA-CHMP4B and Flag-tagged Alix forms; lysates incubated with anti-Flag antibody-conjugated beads; western blot

binding [1]: binds
B1: Flag-Alix, Q8WUM4 1-868 (protein)
chain: MATFISVQLKKTSEVDLAKPLVKFIQQTYPSGGEEQAQYCRAAEELSKLRRAAVGRPLDKHEGALETLLRYYDQICSIEPKFPFSENQICLTFTWKDAFDKGSLFGGSVKLALASLGYEKSCVLFNCAALASQIAAEQNLDNDEGLKIAAKHYQFASGAFLHIKETVLSALSREPTVDISPDTVGTLSLIMLAQAQEVFFLKATRDKMKDAIIAKLANQAADYFGDAFKQCQYKDTLPKEVFPVLAAKHCIMQANAEYHQSILAKQQKKFGEEIARLQHAAELIKTVASRYDEYVNVKDFSDKINRALAAAKKDNDFIYHDRVPDLKDLDPIGKATLVKSTPVNVPISQKFTDLFEKMVPVSVQQSLAAYNQRKADLVNRSIAQMREATTLANGVLASLNLPAAIEDVSGDTVPQSILTKSRSVIEQGGIQTVDQLIKELPELLQRNREILDESLRLLDEEEATDNDLRAKFKERWQRTPSNELYKPLRAEGTNFRTVLDKAVQADGQVKECYQSHRDTIVLLCKPEPELNAAIPSANPAKTMQGSEVVNVLKSLLSNLDEVKKEREGLENDLKSVNFDMTSKFLTALAQDGVINEEALSVTELDRVYGGLTTKVQESLKKQEGLLKNIQVSHQEFSKMKQSNNEANLREEVLKNLATAYDNFVELVANLKEGTKFYNELTEILVRFQNKCSDIVFARKTERDELLKDLQQSIAREPSAPSIPTPAYQSSPAGGHAPTPPTPAPRTMPPTKPQPPARPPPPVLPANRAPSATAPSPVGAGTAAPAPSQTPGSAPPPQAQGPPYPTYPGYPGYCQMPMPMGYNPYAYGQYNMPYPPVYHQSPGQAPYPGPQQPSYPFPQPPQQSYYPQQ

binding [2]: binds
B2: Flag-tagged MVB12B (protein, UniProt Q9H7P6 1-319)
chain: MRSCFCVRRSRDPPPPQPPPPPPQRGTDQSTMPEVKDLSEALPETSMDPITGVGVVASRNRAPTGYDVVAQTADGVDADLWKDGLFKSKVTRYLCFTRSFSKENSHLGNVLVDMKLIDIKDTLPVGFIPIQETVDTQEVAFRKKRLCIKFIPRDSTEAAICDIRIMGRTKQAPPQYTFIGELNSMGIWYRMGRVPRNHDSSQPTTPSQSSAASTPAPNLPRHISLTLPATFRGRNSTRTDYEYQHSNLYAISAMDGVPFMISEKFSCVPESMQPFDLLGITIKSLAEIEKEYEYSFRTEQSAAARLPPSPTRCQQIPQS

binding [3]: binds
B3: HA-CHMP4B (protein, UniProt Q9H444 1-224)
chain: MSVFGKLFGAGGGKAGKGGPTPQEAIQRLRDTEEMLSKKQEFLEKKIEQELTAAKKHGTKNKRAALQALKRKKRYEKQLAQIDGTLSTIEFQREALENANTNTEVLKNMGYAAKAMKAAHDNMDIDKVDELMQDIADQQELAEEISTAISKPVGFGEEFDEDELMAELEELEQEELDKNLLEISGPETVPLPNVPSIALPSKPAKKKEEEDDDMKELENWAGSM
